Values from PubChem BioAssay AID720505 (Drosophila RNAi Screening Center, 2013)
Aim: 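Knock-downs that reduce calcium influx once internal stores are emptied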 (primary screen). Cell system: Drosophila S2R+ cells. Reagent: long dsRNA against Drosophila genes. Conditions: thapsigargin (2 µM) in calcium-free buffer to empty internal stores, then 2 mM calcium added back. Measurement: 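Stores emptied by 2 µM thapsigargin without calcium, then 2 mM calcium re-added; fluo-4 fluorescence followed by FLIPR in 384-well plates, per-well averaged endpoint, raw; two screen passes, some wells retested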. Direction: calcium signal: higher = more calcium entry after store depletion. Hit rule: 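About 1500 genes called as lowering calcium entry, by varying amounts, judged against per-plate control wells with STIM1 as positive and Rho1 as negative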. Meaning of the calls: active = called as lowering calcium entry; inactive = not called.
The deposit covers about 20,000 reagents; this is a random part of those with a known target gene and a result. Over the whole deposit, about 2,100 (10%) are marked active. 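Raw plate signals without normalisation; calls rest on control-based scores that were not deposited; replicate 2 separates called from uncalled poorly.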 The numbers tell different reagents against one gene apart. A plus sign joins genes that one reagent is predicted to hit. Not given: the amount of reagent, the time to read-out.

| gene knocked down | dsRNA no. | calcium signal, replicate 1 | calcium signal, replicate 2 | activity call |
| --- | --- | --- | --- | --- |
| Duba | 1 | 93.5 | 114 | inactive |
| Octalpha2R | 1 | – | – | inactive |
| Octalpha2R | 2 | 71.1 | 135 | active |
| CG6800 | 1 | 152 | 140 | inactive |
| CG11458 | 1 | 109 | 184 | inactive |
| CG11269 | 1 | 70 | 226 | inactive |
| CG2931 | 1 | 134 | 172 | inactive |
| CG14153 | 1 | 73.5 | 108 | inactive |
| CG14153 | 2 | 145 | 199 | inactive |
| DIP-beta | 1 | 101 | 11450 | inactive |
| DIP-beta | 2 | 112 | 88.3 | inactive |
| DIP-beta | 3 | 118 | 91.5 | inactive |
| DIP-beta | 4 | 87 | 86.8 | inactive |
| Trm7-32 | 1 | 231 | 313 | inactive |
| CRAT | 1 | 110 | 116 | inactive |
| bin3 | 1 | 155 | 177 | inactive |
| tant | 1 | 54.5 | 63.4 | inactive |
| Slik | 1 | 182 | 106 | inactive |
| CG13380 + CG4174 | 1 | 104 | 99.8 | inactive |
| CG13380 + CG4174 | 2 | 93.8 | 84.7 | active |
| Pp1-Y1 | 1 | 81.5 | 7058 | inactive |
| CG16719 | 1 | 76.4 | 73.9 | inactive |
| Galt | 1 | 131 | 247 | inactive |
| CG13050 | 1 | 73.7 | 125 | active |
| CG6785 | 1 | 114 | 72 | inactive |
| mAChR-C | 1 | 226 | 162 | inactive |
| path | 1 | 86.6 | 47.3 | active |
| Prp39 | 1 | 116 | 147 | inactive |
| CG15139 (retired record) | 1 | 113 | 147 | inactive |
| CG31688 + CG31687 | 1 | 216 | 113 | inactive |
| CG44251 | 1 | 126 | 132 | inactive |
| sage | 1 | 113 | 141 | inactive |
| LManIV | 1 | 77.8 | 74.3 | active |
| mh | 1 | 68.9 | 135 | active |

A stretch from the list above, as a working copy:
| gene knocked down | dsRNA no. | calcium signal, replicate 1 | calcium signal, replicate 2 | activity call |
| --- | --- | --- | --- | --- |
| Trm7-32 | 1 | 231 | 313 | inactive |
| CRAT | 1 | 110 | 116 | inactive |
